SMILES strings stand for the structures. Several values for one entry are separate records, joined by “and”; a condition that tells them apart may be missing. Equal values may be shown once. This is one part of the list. Many values rest on one well or one pass, so single values are uncertain.

This assay has as its system PREPP (mouse prostate epithelium Trp53/Pten KO). Description: cell viability relative to untreated (fraction); higher = less growth inhibition. The settings on record: 5 µM; 3 days.
On to `CC(=O)OCC1=C(C(=O)O)N2C(=O)[C@@H](NC(=O)Cc3cccs3)[C@H]2SC1`, for which the cell viability was 1.13.
Compound `Cc1cnc(C(=O)O)c[n+]1[O-]` yielded a cell viability of 0.88.
`C=CCc1ccc(O)c(-c2ccc(O)c(CC=C)c2)c1` displayed a cell viability of 0.932.
Regarding `C[C@@H](O)CC(=O)O`, the cell viability is 0.977 and 1.01.
On to `C/C(=C/C(=O)O)C(=O)O`, for which the cell viability amounted to 0.968.
Take `CCCCc1ccc(O)cc1O`: the cell viability turned out to be 1.19.
In the case of `O=C(O)[C@H]1CSC(c2nc3ccc(O)cc3s2)=N1` it was 0.999 and 0.902.
With `CCOc1ccc2ccccc2c1C(=O)N[C@@H]1C(=O)N2[C@@H]1SC(C)(C)[C@@H]2C(=O)O`, the cell viability was 0.906.
Turning to `CO/N=C(\C(=O)N[C@@H]1C(=O)N2C(C(=O)O)=C(COC(C)=O)CS[C@H]12)c1csc(N)n1`, the cell viability was 0.842.
Compound `COc1cc(CNC(=O)CCCC/C=C/C(C)C)ccc1O` returned a cell viability of 1.02.
In turn, `N[C@@H](CCC(=O)N[C@@H](CS)C(=O)NCC(=O)O)C(=O)O` returned a cell viability of 0.964.
`C=C[C@](C)(O)CC[C@@H]1[C@@]2(C)CCCC(C)(C)[C@@H]2CC[C@@]1(C)O` displayed a cell viability of 0.98.
Regarding `CC[C@]12CCCN3CCc4c(n(c5ccccc45)[C@@](O)(C(=O)OC)C1)[C@@H]32`, the cell viability is 1.03.
The compound `COc1cc(O)cc(OC)c1` showed a cell viability of 1.09.
Turning to `CO[C@@H]1[C@@H](OC(N)=O)[C@@H](O)[C@H](Oc2ccc3c(O)c(NC(=O)c4ccc(O)c(CC=C(C)C)c4)c(=O)oc3c2C)OC1(C)C`, the cell viability is 0.722.
`COc1cccc(/C=N/N(C(=O)C(F)(F)F)c2ccc(C)cc2C)c1` returned a cell viability of 0.868.
`CC(C)(O)[C@H]1CC[C@@](C)([C@H]2[C@@H](O)C[C@@]3(C)[C@@H]4C[C@H](O[C@@H]5O[C@H](CO)[C@@H](O)[C@H](O)[C@H]5O)[C@H]5C(C)(C)[C@@H](O[C@@H]6OC[C@@H](O)[C@H](O)[C@H]6O)CC[C@@]56C[C@@]46CC[C@]23C)O1`: the cell viability was found to be 0.783.
